# Data: paper PMC5996148
# Where “and” joins values, the source holds several entries; their conditions need not be identical. Equal entries are not always repeated. Some of the results follow.
# Assays:
# Assay in all cases: protein microarray (ProtoArray v5.0), streptavidin-Alexa Fluor 647
# Conditions in all cases: 3'-biotin; 20 mM Tris (pH 7.5), 5 mM MgCl2, 100 mM KCl, 0.1% Tween-20, A/T-rich and random oligonucleotide blockers; temperature not stated; high values mean tight binding
# [1] = system: GRIP and coiled-coil domain-containing protein 1 (human)
# GSDMDC1 (human) = system: GSDMDC1 (human)
# GSTA1 (human) = system: GSTA1 (human)
# GSTA3 (human) = system: GSTA3 (human)
# GSTM3 (human) = system: GSTM3 (human)
# GSTO1 (human) = system: GSTO1 (human)
# GSTO2 (human) = system: GSTO2 (human)
# GSTP1 (human) = system: GSTP1 (human)
# GSTZ1 (human) = system: GSTZ1 (human)
# GTF2E1 (human) = system: GTF2E1 (human)
sequence,measurement,setting,value
GGGAGGCTGAGGCAGG [G4-1 biotinylated (PQS2)],binding signal,[1],-0.236 z-score
same,binding signal,GSDMDC1 (human),-0.327 z-score
same,binding signal,GSTA1 (human),-0.341 z-score
same,binding signal,GSTA3 (human),-0.332 z-score
same,binding signal,GSTM3 (human),-0.353 z-score and -0.276 z-score
same,binding signal,GSTO1 (human),-0.275 z-score
same,binding signal,GSTO2 (human),-0.282 z-score
same,binding signal,GSTP1 (human),-0.32 z-score
same,binding signal,GSTZ1 (human),-0.325 z-score
same,binding signal,GTF2E1 (human),-0.287 z-score

# For reference, some entries already given:
sequence,measurement,setting,value
GGGAGGCTGAGGCAGG [G4-1 biotinylated (PQS2)],binding signal,GSTO2 (human),-0.282 z-score
same,binding signal,GSTP1 (human),-0.32 z-score
